Reference: PMC7819943, “Rice protein-binding microarrays: a tool to detect cis-acting elements near promoter regions in rice”
The list shows a part of the results.

Amino acid sequences for entries named in this document (tags omitted).
UniProt Q0JBA9, entry or part of it: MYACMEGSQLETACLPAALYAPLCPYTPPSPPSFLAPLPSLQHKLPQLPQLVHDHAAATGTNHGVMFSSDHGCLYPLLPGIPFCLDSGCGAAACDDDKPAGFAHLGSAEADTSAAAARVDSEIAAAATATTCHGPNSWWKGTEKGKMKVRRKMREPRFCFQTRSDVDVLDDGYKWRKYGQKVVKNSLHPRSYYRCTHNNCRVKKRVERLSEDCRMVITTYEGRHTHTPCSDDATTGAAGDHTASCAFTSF

target: OsWRKY34 (Oryza sativa, UniProt Q0JBA9 1-250); assay: protein-binding microarray (RPBM); PBS, 2% BSA, 51.3 ng/ul salmon testes DNA, 50 uM zinc acetate, 200 nM TF, 25 C, 1 h; high values mean tight binding; conditions: protein: recombinant; tags: N-terminal polyhistidine and DsRed monomer fusion (pET32a); label: CyDye5-dUTP incorporated in the synthesized complementary strand; 3' TTTTT single-stranded linker to array surface; dsDNA, one strand shown
In short: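 Transcription factors, each fused N-terminally to a polyhistidine tag and DsRed, were expressed in E. coli BL21-CodonPlus and purified on Ni–NTA. A custom Agilent array was made double-stranded by primer extension with Cy5-dUTP and blocked with 2% BSA. It was incubated with 200 nM protein in PBS, 2% BSA, salmon testes DNA and 50 µM zinc acetate at 25 °C for 1 h, then washed. The binding signal is per-feature fluorescence intensity (arbitrary units) read on an Axon 4000B scanner.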

Sequence	binding signal
CTACCGGTTTTGTATGTAAATGTTGTTGTTTTGTGATTTCCGGAGTCACCTAGTGCAG	8660 fluorescence intensity (a.u.)
CTCCGCTTCCGTCACCGATGAGTTTGGCCCCATCAACGTTCGGAGTCACCTAGTGCAG	8630 fluorescence intensity (a.u.)
GCGTCCAATCCGCCGTCGACTGCTGGCCACCGCGTCGATCCGGAGTCACCTAGTGCAG	8840 fluorescence intensity (a.u.)
AGTTATCTTGCTACTATTTCTAAGTGATGTATTGGCTTATCGGAGTCACCTAGTGCAG	10400 fluorescence intensity (a.u.)
CCTGTACTATGGTAGTAATTACTTTATACTTAAAATTTCCCGGAGTCACCTAGTGCAG	8230 fluorescence intensity (a.u.)
TTCTTGCTAGTTCTTGTAGTATCTGGTTCTTGCTAGTTCTCGGAGTCACCTAGTGCAG	10800 fluorescence intensity (a.u.)
AATATATGTATTGTTCAGGATGGTGGTGGACTGGTGCGCCCGGAGTCACCTAGTGCAG	8980 fluorescence intensity (a.u.)
GCGCGGGACGGGAGACTCCTTTTGTTTGTCACTTTCCGCCCGGAGTCACCTAGTGCAG	9730 fluorescence intensity (a.u.)
CACACCTTTCTCTTCTTCCACACTACAGTATTCAGCAACTCGGAGTCACCTAGTGCAG	8820 fluorescence intensity (a.u.)
CAAATAGTTACATTCTCGTTGGGCCACCGCGGTTTGCTTCCGGAGTCACCTAGTGCAG	9100 fluorescence intensity (a.u.)
TCATGGATTGGCAGCACGCTATCCTGGACGTCATTGTTTCCGGAGTCACCTAGTGCAG	8380 fluorescence intensity (a.u.)
CTAGCAATTTGTTTTTCTTCGTACATAAATCTTGAGACGACGGAGTCACCTAGTGCAG	8740 fluorescence intensity (a.u.)
GTTGGTTGATTACATTTTGAATGCGTGGTTGAGATCGAGTCGGAGTCACCTAGTGCAG	8400 fluorescence intensity (a.u.)
CAACCATGAGGGGAGGGGAGGCCATAGTGGAGGACTGGAGCGGAGTCACCTAGTGCAG	8080 fluorescence intensity (a.u.)
GGATCAGTAATGCCCATGGTCTTTTTCTACATATGTCATTCGGAGTCACCTAGTGCAG	10500 fluorescence intensity (a.u.)
GGCACTTTTTTCCCATCGCGTCCCATTTAGGTGCACGCCCCGGAGTCACCTAGTGCAG	9340 fluorescence intensity (a.u.)
GCAGGATAGACCCGCGAGCTGCTACACTTGTCCTCATTTACGGAGTCACCTAGTGCAG	9080 fluorescence intensity (a.u.)
ATGTGTCCTCATGTTTGGCGTGTCCCTTCTGACTGATTCGCGGAGTCACCTAGTGCAG	9530 fluorescence intensity (a.u.)
CTCGTTTAGTTGGGGAAAATTTTTCAGTTTGGTTGTCACACGGAGTCACCTAGTGCAG	8570 fluorescence intensity (a.u.)
TGTAACCTACTCCTGTCTAATTCCTGCGCTTAACTAAATTCGGAGTCACCTAGTGCAG	11800 fluorescence intensity (a.u.)
ATACTTAGTTAGCTATACTATACTACTCTTCTTCTTCTTCCGGAGTCACCTAGTGCAG	9260 fluorescence intensity (a.u.)
GACTCGGACACGGACCCTGCCGGTCTGACCGCCCACATACCGGAGTCACCTAGTGCAG	11100 fluorescence intensity (a.u.)
TGGCGCCATATGCTACAGTCGATTTTTTTTTAGCCACTTACGGAGTCACCTAGTGCAG	9820 fluorescence intensity (a.u.)

2 consecutive records out of the list so far, quoted:
Sequence	binding signal
CTCGTTTAGTTGGGGAAAATTTTTCAGTTTGGTTGTCACACGGAGTCACCTAGTGCAG	8570 fluorescence intensity (a.u.)
TGTAACCTACTCCTGTCTAATTCCTGCGCTTAACTAAATTCGGAGTCACCTAGTGCAG	11800 fluorescence intensity (a.u.)
